# Experimental data as given in US20100273189A1, “NON SEPARATION ASSAYS WITH SELECTIVE SIGNAL INHIBITORS” (BECKMAN COULTER, INC., priority 2009, published 2010).
# System: PSA
# Assay: Heterogeneous PSA immunoassay on silica particles with Et2NOH as SSIA
# Format: biochemical
# Conditions: for RLU: second column pair (head prints w/o Et2NOH, taken as with Et2NOH), average of duplicates; for S/S0: second column pair (taken as with Et2NOH)
compound,measurement,setting,value
CCN(O)CC [Et2NOH],RLU,PSA calibrator S0,6694 RLU
same,RLU,PSA calibrator S1,446120 RLU
same,S/S0,PSA calibrator S1,66.6
same,RLU,PSA calibrator S5,43144054 RLU
same,S/S0,PSA calibrator S5,6445
